Assay [1] has as its target JARID2 (human (endogenous in H9 hESC and hNPC)) (UniProt Q92833). The assay is described as follows: co-IP; anti-JARID2 IP from hESC nuclear extract, Western blot.
For a further assay, the target named is His-JARID2 (UniProt Q92833). The assay is described as follows: pull-down; His-JARID2 and GST-YBX1; Western blot.
The target of assay [2] is Ybx1 (mouse (endogenous in NE-4C cells and in mouse neural tube)) (UniProt P62960). The assay is described as follows: co-IP; IgG, Jarid2 and Ybx1 IP from mouse neural tube nuclear extract (E13.5); Western blot.
The target in assay [3] is T1, Jarid2 (mouse (endogenous in NE-4C cells and in mouse neural tube)) (UniProt Q62315).
T1 sequence: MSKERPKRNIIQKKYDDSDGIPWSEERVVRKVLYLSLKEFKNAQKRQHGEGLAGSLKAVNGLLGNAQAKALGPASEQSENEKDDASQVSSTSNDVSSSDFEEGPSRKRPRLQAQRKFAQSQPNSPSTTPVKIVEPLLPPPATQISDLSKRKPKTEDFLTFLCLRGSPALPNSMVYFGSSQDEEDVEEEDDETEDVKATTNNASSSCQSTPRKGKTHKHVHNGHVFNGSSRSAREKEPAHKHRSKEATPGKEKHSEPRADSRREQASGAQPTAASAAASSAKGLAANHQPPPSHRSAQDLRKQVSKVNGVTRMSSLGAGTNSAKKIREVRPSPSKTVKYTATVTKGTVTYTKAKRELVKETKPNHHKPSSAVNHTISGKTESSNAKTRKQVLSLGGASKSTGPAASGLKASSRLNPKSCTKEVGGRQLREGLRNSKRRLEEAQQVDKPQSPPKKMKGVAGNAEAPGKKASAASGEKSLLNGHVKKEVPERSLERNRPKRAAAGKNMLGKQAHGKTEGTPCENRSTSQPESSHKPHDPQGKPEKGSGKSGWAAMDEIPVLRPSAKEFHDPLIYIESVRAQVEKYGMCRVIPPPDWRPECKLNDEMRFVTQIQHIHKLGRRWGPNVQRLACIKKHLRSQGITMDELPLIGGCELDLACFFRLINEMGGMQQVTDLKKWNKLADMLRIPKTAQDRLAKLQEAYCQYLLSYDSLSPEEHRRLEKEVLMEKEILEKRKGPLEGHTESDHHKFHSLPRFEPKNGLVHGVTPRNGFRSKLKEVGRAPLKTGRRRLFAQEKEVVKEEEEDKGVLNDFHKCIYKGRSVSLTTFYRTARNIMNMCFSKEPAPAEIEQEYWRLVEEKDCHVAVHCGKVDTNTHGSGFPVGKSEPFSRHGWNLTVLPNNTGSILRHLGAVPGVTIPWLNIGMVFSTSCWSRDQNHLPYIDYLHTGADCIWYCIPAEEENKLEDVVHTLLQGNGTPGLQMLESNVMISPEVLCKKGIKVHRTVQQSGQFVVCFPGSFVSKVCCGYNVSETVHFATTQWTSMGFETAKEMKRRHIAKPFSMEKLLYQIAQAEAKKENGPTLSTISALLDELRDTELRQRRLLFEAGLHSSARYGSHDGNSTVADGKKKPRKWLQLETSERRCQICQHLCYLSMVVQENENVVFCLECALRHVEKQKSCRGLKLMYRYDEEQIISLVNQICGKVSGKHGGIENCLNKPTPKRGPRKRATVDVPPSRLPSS
The description is as above.

By UniProt entry, the sequences of proteins in these tests, tags left out. Where a name states a change or a piece, a line headed by the entry shows the natural chain unless it says otherwise.
UniProt P62960: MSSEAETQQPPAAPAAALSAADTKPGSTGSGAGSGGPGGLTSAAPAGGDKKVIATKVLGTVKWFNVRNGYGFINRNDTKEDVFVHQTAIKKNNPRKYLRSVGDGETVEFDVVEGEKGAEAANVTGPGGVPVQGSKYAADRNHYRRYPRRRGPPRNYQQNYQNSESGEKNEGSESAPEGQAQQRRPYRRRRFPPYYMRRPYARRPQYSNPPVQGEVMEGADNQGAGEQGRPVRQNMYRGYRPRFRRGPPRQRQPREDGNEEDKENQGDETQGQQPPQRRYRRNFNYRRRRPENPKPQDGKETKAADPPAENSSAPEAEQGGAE
UniProt Q15022: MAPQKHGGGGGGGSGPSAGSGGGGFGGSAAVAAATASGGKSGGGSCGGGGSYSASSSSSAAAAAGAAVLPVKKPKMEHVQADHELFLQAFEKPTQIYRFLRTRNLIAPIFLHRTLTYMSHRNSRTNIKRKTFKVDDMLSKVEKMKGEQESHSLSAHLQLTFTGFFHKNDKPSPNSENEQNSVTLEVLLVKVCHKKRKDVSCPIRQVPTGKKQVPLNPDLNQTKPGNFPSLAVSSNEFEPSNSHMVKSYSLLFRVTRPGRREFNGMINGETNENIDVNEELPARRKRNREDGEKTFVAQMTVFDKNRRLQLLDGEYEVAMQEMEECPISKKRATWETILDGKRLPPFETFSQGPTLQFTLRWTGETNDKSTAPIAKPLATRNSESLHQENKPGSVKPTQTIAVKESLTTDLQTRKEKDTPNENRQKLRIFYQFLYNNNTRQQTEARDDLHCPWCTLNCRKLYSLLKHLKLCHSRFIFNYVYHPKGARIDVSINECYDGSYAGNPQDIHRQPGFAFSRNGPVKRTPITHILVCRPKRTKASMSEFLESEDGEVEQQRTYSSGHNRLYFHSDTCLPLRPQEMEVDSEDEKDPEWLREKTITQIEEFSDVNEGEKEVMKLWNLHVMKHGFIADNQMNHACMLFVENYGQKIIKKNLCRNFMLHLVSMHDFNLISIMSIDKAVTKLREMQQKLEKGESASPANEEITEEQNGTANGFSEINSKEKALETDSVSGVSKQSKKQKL
UniProt Q96KQ7: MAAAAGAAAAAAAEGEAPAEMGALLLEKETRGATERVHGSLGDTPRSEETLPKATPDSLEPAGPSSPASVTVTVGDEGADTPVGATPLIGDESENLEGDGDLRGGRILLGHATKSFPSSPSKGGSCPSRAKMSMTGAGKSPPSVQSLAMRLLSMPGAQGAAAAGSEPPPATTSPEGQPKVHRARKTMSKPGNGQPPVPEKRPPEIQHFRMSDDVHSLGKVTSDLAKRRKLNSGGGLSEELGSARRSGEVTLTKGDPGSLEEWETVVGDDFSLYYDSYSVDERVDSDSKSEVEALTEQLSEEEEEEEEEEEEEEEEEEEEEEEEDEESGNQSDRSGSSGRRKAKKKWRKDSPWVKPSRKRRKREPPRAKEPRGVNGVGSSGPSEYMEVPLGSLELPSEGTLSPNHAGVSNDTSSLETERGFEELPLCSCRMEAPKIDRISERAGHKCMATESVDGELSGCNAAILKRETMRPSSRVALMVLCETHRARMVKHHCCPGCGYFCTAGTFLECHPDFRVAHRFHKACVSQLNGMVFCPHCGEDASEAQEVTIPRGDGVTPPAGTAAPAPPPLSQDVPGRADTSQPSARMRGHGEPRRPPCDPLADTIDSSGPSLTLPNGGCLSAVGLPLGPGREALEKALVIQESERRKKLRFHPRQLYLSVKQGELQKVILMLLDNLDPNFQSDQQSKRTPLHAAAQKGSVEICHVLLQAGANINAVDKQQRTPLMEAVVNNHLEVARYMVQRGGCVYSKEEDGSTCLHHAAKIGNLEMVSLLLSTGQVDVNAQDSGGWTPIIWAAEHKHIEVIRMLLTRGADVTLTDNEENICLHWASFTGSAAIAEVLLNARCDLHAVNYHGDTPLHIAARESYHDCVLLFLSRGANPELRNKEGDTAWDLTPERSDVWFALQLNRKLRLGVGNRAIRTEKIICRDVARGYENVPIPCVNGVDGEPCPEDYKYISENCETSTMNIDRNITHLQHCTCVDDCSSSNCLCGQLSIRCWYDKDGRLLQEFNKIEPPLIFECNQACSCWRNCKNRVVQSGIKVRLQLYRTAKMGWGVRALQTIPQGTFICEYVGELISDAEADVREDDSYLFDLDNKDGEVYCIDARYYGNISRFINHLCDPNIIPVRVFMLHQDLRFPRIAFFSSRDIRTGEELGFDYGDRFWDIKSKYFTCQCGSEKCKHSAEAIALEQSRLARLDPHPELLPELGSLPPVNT
UniProt P67809: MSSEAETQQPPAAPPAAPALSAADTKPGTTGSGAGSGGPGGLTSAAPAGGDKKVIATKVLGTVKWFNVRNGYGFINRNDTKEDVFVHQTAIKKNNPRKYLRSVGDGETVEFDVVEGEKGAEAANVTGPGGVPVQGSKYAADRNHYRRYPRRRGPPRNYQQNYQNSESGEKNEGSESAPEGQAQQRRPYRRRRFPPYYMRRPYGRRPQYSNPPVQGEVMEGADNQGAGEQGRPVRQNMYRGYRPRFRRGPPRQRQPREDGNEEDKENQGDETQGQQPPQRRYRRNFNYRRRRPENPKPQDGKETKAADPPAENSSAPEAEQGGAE
UniProt Q61188: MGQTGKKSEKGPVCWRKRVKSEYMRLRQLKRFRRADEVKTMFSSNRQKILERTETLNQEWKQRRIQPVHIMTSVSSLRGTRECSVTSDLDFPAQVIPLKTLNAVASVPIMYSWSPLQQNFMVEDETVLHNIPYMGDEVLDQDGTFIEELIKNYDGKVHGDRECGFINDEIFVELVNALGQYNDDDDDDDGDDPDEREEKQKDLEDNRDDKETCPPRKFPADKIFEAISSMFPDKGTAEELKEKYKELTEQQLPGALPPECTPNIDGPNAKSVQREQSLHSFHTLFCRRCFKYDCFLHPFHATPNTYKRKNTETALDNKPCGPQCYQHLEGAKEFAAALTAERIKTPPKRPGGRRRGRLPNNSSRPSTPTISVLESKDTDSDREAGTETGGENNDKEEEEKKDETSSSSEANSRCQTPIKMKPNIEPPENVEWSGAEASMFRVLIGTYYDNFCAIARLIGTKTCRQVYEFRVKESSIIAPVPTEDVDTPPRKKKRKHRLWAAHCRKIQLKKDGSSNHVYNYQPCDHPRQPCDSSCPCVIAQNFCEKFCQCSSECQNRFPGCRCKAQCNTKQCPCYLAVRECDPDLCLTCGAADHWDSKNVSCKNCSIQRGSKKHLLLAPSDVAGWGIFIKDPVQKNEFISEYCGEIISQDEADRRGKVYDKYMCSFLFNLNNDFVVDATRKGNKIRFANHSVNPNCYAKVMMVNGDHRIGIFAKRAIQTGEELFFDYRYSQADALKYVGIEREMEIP

The target of assay [4] is JARID2 (human (endogenous in H9 hESC and hNPC)) (UniProt Q92833). The assay can be described thus: co-IP; IgG, JARID2, YBX1 and SUZ12 IP from hNPC nuclear extract; Western blot.
The target of assay [5] is SUZ12 (human (endogenous in H9 hESC and hNPC)) (UniProt Q15022). The assay is described as above.
Assay [6] addresses JARID2 (human (endogenous in H9 hESC and hNPC)) (UniProt Q92833). The assay can be described thus: co-IP; IgG, JARID2 and YBX1 IP from hESC nuclear extract; benzonase treatment (125 U/mL, 30 min RT), high-stringency washes, 2 other JARID2 antibodies; Western blot.
The target in assay [7] is Ybx1 (mouse (endogenous in NE-4C cells and in mouse neural tube)) (UniProt P62960). The assay can be described thus: co-IP; IgG, Jarid2 and Ybx1 IP from mouse neural tube nuclear extract (E13.5); Western blot. This is another data set of the same source.

Like-named read-outs stand apart in the source and are kept apart here. No constants are given. Whether binding was seen depends on the method and setting. In cells and extracts the contact can be indirect. Some entries that bind do so weakly or less than the wild type.

Turning to G9A (from UniProt Q96KQ7 1-1210), in assay [1], the binding result was “no binding”. As for GST-YBX1 (from UniProt P67809 1-324), in the assay with His-JARID2, the binding entry is listed as “binds”.

Regarding “PRC2 (from UniProt Q61188 1-746; Q80U70 1-741; Q921E6 1-441) (complex)”, the binding entry in assay [2] and in assay [3] was “binds” in each case.

For the molecule “Y-box binding protein 1 (from UniProt P67809 1-324)”, the results for the binding result in assay [4], in assay [5] and in assay [6] were “binds”, “binds weakly” and “binds”, respectively.

B1: Jarid2 (protein, UniProt Q62315 1-1234)
chain: MSKERPKRNIIQKKYDDSDGIPWSEERVVRKVLYLSLKEFKNAQKRQHGEGLAGSLKAVNGLLGNAQAKALGPASEQSENEKDDASQVSSTSNDVSSSDFEEGPSRKRPRLQAQRKFAQSQPNSPSTTPVKIVEPLLPPPATQISDLSKRKPKTEDFLTFLCLRGSPALPNSMVYFGSSQDEEDVEEEDDETEDVKATTNNASSSCQSTPRKGKTHKHVHNGHVFNGSSRSAREKEPAHKHRSKEATPGKEKHSEPRADSRREQASGAQPTAASAAASSAKGLAANHQPPPSHRSAQDLRKQVSKVNGVTRMSSLGAGTNSAKKIREVRPSPSKTVKYTATVTKGTVTYTKAKRELVKETKPNHHKPSSAVNHTISGKTESSNAKTRKQVLSLGGASKSTGPAASGLKASSRLNPKSCTKEVGGRQLREGLRNSKRRLEEAQQVDKPQSPPKKMKGVAGNAEAPGKKASAASGEKSLLNGHVKKEVPERSLERNRPKRAAAGKNMLGKQAHGKTEGTPCENRSTSQPESSHKPHDPQGKPEKGSGKSGWAAMDEIPVLRPSAKEFHDPLIYIESVRAQVEKYGMCRVIPPPDWRPECKLNDEMRFVTQIQHIHKLGRRWGPNVQRLACIKKHLRSQGITMDELPLIGGCELDLACFFRLINEMGGMQQVTDLKKWNKLADMLRIPKTAQDRLAKLQEAYCQYLLSYDSLSPEEHRRLEKEVLMEKEILEKRKGPLEGHTESDHHKFHSLPRFEPKNGLVHGVTPRNGFRSKLKEVGRAPLKTGRRRLFAQEKEVVKEEEEDKGVLNDFHKCIYKGRSVSLTTFYRTARNIMNMCFSKEPAPAEIEQEYWRLVEEKDCHVAVHCGKVDTNTHGSGFPVGKSEPFSRHGWNLTVLPNNTGSILRHLGAVPGVTIPWLNIGMVFSTSCWSRDQNHLPYIDYLHTGADCIWYCIPAEEENKLEDVVHTLLQGNGTPGLQMLESNVMISPEVLCKKGIKVHRTVQQSGQFVVCFPGSFVSKVCCGYNVSETVHFATTQWTSMGFETAKEMKRRHIAKPFSMEKLLYQIAQAEAKKENGPTLSTISALLDELRDTELRQRRLLFEAGLHSSARYGSHDGNSTVADGKKKPRKWLQLETSERRCQICQHLCYLSMVVQENENVVFCLECALRHVEKQKSCRGLKLMYRYDEEQIISLVNQICGKVSGKHGGIENCLNKPTPKRGPRKRATVDVPPSRLPSS
For B1, in assay [7], the binding entry was “binds weakly”.

Values taken from publication PMC7426271.
